Patent WO2009104736A1

Molecular target: Aβ deposited in senile plaques of the brain of AβPP transgenic Tg2576 mice
Assay: immunofluorescence of brain sections of Tg2576 mice given 3.4A10 intraperitoneally; detected with Alexa594 donkey anti-mouse IgG

B1: monoclonal antibody 3.4A10 (antibody of Example 1) (antibody, V domains shown)
VH: EVQLLESGGGLVQPGGSRKLSCAASGFTFSSFGVHWFRQAPEKGLEWVAYISSGSSTIYYADTVKGRFTISRDNPKNTLFLQMASLRSEDTAMYYCAPYGSSPFPYWGQGTLVTVST
VL: ELQLTQSPASLAVSLGQRATISCRASESVDSYGYNFMHWYQQKPGQPPKLLIYLASNLESGVPARFSGSGSRTDFTLTIDPVEADDAATYYCQQNNEDPLTFGAGTKLELKR
binding: binds

No constants are given. Whether binding was seen depends on the method and setting. Binding calls can cover weak binding; strength is not graded here.
